In PMC8983679 one finds binding data, which are given here for one molecule.

This assay has as its target YTH N6-methyladenosine RNA-binding protein 2 (Ythdf2) (rat (endogenous in H9c2)). The assay can be described thus: co-IP; endogenous proteins in H9c2 cell lysate; lysates incubated with specific antibodies and Protein A/G beads at 4 °C for 12 h, washed three times, western blot. (In general: In western blotting, separated proteins are transferred to a membrane and probed.)

Results are given in words; binding and its absence hold for the method and conditions named. In cells and extracts the contact can be indirect. Binding can be weak; no strength is given.

B1: Carnitine palmitoyl transferase-1a (CPT-1a) (protein, UniProt P32198 1-773)
chain: MAEAHQAVAFQFTVTPDGIDLRLSHEALKQICLSGLHSWKKKFIRFKNGIITGVFPANPSSWLIVVVGVISSMHAKVDPSLGMIAKISRTLDTTGRMSSQTKNIVSGVLFGTGLWVAVIMTMRYSLKVLLSYHGWMFAEHGKMSRSTKIWMAMVKVLSGRKPMLYSFQTSLPRLPVPAVKDTVSRYLESVRPLMKEEDFQRMTALAQDFAVNLGPKLQWYLKLKSWWATNYVSDWWEEYIYLRGRGPLMVNSNYYAMEMLYITPTHIQAARAGNTIHAILLYRRTLDREELKPIRLLGSTIPLCSAQWERLFNTSRIPGEETDTIQHIKDSRHIVVYHRGRYFKVWLYHDGRLLRPRELEQQMQQILDDPSEPQPGEAKLAALTAADRVPWAKCRQTYFARGKNKQSLDAVEKAAFFVTLDESEQGYREEDPEASIDSYAKSLLHGRCFDRWFDKSITFVVFKNSKIGINAEHSWADAPVVGHLWEYVMATDVFQLGYSEDGHCKGDTNPNIPKPTRLQWDIPGECQEVIDASLSSASLLANDVDLHSFPFDSFGKGLIKKCRTSPDAFIQLALQLAHYKDMGKFCLTYEASMTRLFREGRTETVRSCTMESCNFVQAMMDPKSTAEQRLKLFKIACEKHQHLYRLAMTGAGIDRHLFCLYVVSKYLAVDSPFLKEVLSEPWRLSTSQTPQQQVELFDFEKNPDYVSCGGGFGPVADDGYGVSYIIVGENFIHFHISSKFSSPETDSHRFGKHLRQAMMDIITLFGLTINSKK
Regarding B1, the binding entry was “binds”.
